# Measured values reported in the supplement of paper PMC8728848.
# The other results are listed elsewhere or left out.
# B1: GroEL (Clostridium difficile), Q18CT5 (protein)
# chain: MAKEIKFSEETRRALEAGVNKLADTVKVTLGPKGRNVILDKKFGSPLITNDGVTIAKEIELEDRFENMGAQLVKEVATKTNDVAGDGTTTATVLAQAIIREGLKNVTAGANPILLRKGIQKAVTVAVEELKNQSRIVETQEAISQVASISAGDEEVGKLIAEAMEIVGKDGVITVEESQTMNTELDAVEGMQFDRGFVSAYMVTDVDKMEAVLNDPYILITDKKISNIQELLPVLEQIVQQGKKLLIIAEDVEGEALSTLVVNKLRGTFDVVAVKAPGFGDRRKEMLQDIAILTGAQVISEELGYDLKEADLSMLGRASSVKVTKESTTIVDGSGDKKAIEDRVTQIKHQVEQTTSDFDREKLMERLAKLAGGVAVVKVGAATEVELKERKLRIEDALNATRAAVEEGIVAGGGTAFVSVIPAIGTLIESLEGEVKLGAQIVKKALEEPLRQIAINAGLEGAVIVQNVVNSEAETGFDALNEKYVNMIEAGIVDPTKVSRSALQNAASIASTFLTTEAAVADLPEKEDAGMPGMGGGMPGMM
# Key:
# Test in all cases: glycan array binding signal (z-score within array); higher = stronger binding
# Conditions in all cases: glycan notation: IUPAC condensed, linker removed
# Gal(b1-4)Glc6S = biological target: Gal(b1-4)Glc6S
# In short: (§1)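 From the Consortium for Functional Glycomics database, 3228 arrays were curated, keeping only those whose protein sequence was available. Binding is given as a within-array Z-score averaged across arrays sharing a protein sequence and across linkers. Negative Z-scores can be read as non-binding.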
# Gal(b1-4)GlcNAc = biological target: Gal(b1-4)GlcNAc
# In short: as §1
# [1] = biological target: Gal(b1-4)GlcNAc(a1-6)Gal(b1-4)GlcNAc
# In short: as §1
# Gal(b1-4)GlcNAc(b1-2)Man = biological target: Gal(b1-4)GlcNAc(b1-2)Man
# In short: as §1
# [2] = biological target: Gal(b1-4)GlcNAc(b1-2)Man(a1-3)Man(b1-4)GlcNAc(b1-4)GlcNAc
# In short: as §1
# [3] = biological target: Gal(b1-4)GlcNAc(b1-2)Man(a1-3)[Gal(b1-4)GlcNAc(b1-2)Man(a1-6)]Man(b1-4)GlcNAc(b1-4)GlcNAc
# In short: as §1
# [4] = biological target: Gal(b1-4)GlcNAc(b1-2)Man(a1-3)[Gal(b1-4)GlcNAc(b1-2)Man(a1-6)]Man(b1-4)GlcNAc(b1-4)[Fuc(a1-6)]GlcNAc
# In short: as §1
# [5] = biological target: Gal(b1-4)GlcNAc(b1-2)Man(a1-3)[Gal(b1-4)GlcNAc(b1-2)Man(a1-6)][Gal(b1-4)GlcNAc(b1-4)]Man(b1-4)GlcNAc(b1-4)[Fuc(a1-6)]GlcNAc
# In short: as §1
# [6] = biological target: Gal(b1-4)GlcNAc(b1-2)Man(a1-3)[Gal(b1-4)GlcNAc(b1-2)Man(a1-6)][GlcNAc(b1-4)]Man(b1-4)GlcNAc(b1-4)[Fuc(a1-6)]GlcNAc
# In short: as §1
# [7] = biological target: Gal(b1-4)GlcNAc(b1-2)Man(a1-3)[GlcNAc(b1-2)Man(a1-6)]Man(b1-4)GlcNAc(b1-4)GlcNAc
# In short: as §1
# [8] = biological target: Gal(b1-4)GlcNAc(b1-2)Man(a1-3)[GlcNAc(b1-4)][Gal(b1-4)GlcNAc(b1-2)Man(a1-6)]Man(b1-4)GlcNAc(b1-4)GlcNAc
# In short: as §1
# [9] = biological target: Gal(b1-4)GlcNAc(b1-2)Man(a1-3)[Man(a1-6)]Man(b1-4)GlcNAc(b1-4)GlcNAc
# In short: as §1
# [10] = biological target: Gal(b1-4)GlcNAc(b1-2)Man(a1-6)Man(b1-4)GlcNAc(b1-4)GlcNAc
# In short: as §1
# [11] = biological target: Gal(b1-4)GlcNAc(b1-2)Man(a1-6)[GlcNAc(b1-2)Man(a1-3)]Man(b1-4)GlcNAc(b1-4)GlcNAc
# In short: as §1
# [12] = biological target: Gal(b1-4)GlcNAc(b1-2)Man(a1-6)[Man(a1-3)]Man(b1-4)GlcNAc(b1-4)GlcNAc
# In short: as §1
# [13] = biological target: Gal(b1-4)GlcNAc(b1-2)[Gal(b1-4)GlcNAc(b1-4)]Man(a1-3)[Gal(b1-4)GlcNAc(b1-2)Man(a1-6)]Man(b1-4)GlcNAc(b1-4)GlcNAc
# In short: as §1
# [14] = biological target: Gal(b1-4)GlcNAc(b1-2)[Gal(b1-4)GlcNAc(b1-4)]Man(a1-3)[Gal(b1-4)GlcNAc(b1-2)[Gal(b1-4)GlcNAc(b1-6)]Man(a1-6)]Man(b1-4)GlcNAc(b1-4)GlcNAc
# In short: as §1
# [15] = biological target: Gal(b1-4)GlcNAc(b1-2)[Gal(b1-4)GlcNAc(b1-4)]Man(a1-3)[GlcNAc(b1-4)][Gal(b1-4)GlcNAc(b1-2)Man(a1-6)]Man(b1-4)GlcNAc(b1-4)GlcNAc
# In short: as §1
# [16] = biological target: Gal(b1-4)GlcNAc(b1-2)[Gal(b1-4)GlcNAc(b1-4)]Man(a1-3)[GlcNAc(b1-4)][Gal(b1-4)GlcNAc(b1-2)[Gal(b1-4)GlcNAc(b1-6)]Man(a1-6)]Man(b1-4)GlcNAc(b1-4)GlcNAc
# In short: as §1
# [17] = biological target: Gal(b1-4)GlcNAc(b1-2)[Gal(b1-4)GlcNAc(b1-6)]Man(a1-6)[Gal(b1-4)GlcNAc(b1-2)Man(a1-3)]Man(b1-4)GlcNAc(b1-4)GlcNAc
# In short: as §1
# [18] = biological target: Gal(b1-4)GlcNAc(b1-2)[Gal(b1-4)GlcNAc(b1-6)]Man(a1-6)[Gal(b1-4)GlcNAc(b1-2)Man(a1-3)]Man(b1-4)GlcNAc(b1-4)[Fuc(a1-6)]GlcNAc
# In short: as §1
# [19] = biological target: Gal(b1-4)GlcNAc(b1-2)[Gal(b1-4)GlcNAc(b1-6)]Man(a1-6)[GlcNAc(b1-4)][Gal(b1-4)GlcNAc(b1-2)Man(a1-3)]Man(b1-4)GlcNAc(b1-4)GlcNAc
# In short: as §1
# [20] = biological target: Gal(b1-4)GlcNAc(b1-2)[Gal(b1-4)GlcNAc(b1-6)]Man(a1-6)[GlcNAc(b1-4)][Gal(b1-4)GlcNAc(b1-2)[Gal(b1-4)GlcNAc(b1-4)]Man(a1-3)]Man(b1-4)GlcNAc(b1-4)[Fuc(a1-6)]GlcNAc
# In short: as §1
# [21] = biological target: Gal(b1-4)GlcNAc(b1-3)Gal(b1-3)GalNAc
# In short: as §1
# [22] = biological target: Gal(b1-4)GlcNAc(b1-3)Gal(b1-3)GlcNAc
# In short: as §1
# [23] = biological target: Gal(b1-4)GlcNAc(b1-3)Gal(b1-4)Glc
# In short: as §1
# [24] = biological target: Gal(b1-4)GlcNAc(b1-3)Gal(b1-4)GlcNAc
# In short: as §1
# [25] = biological target: Gal(b1-4)GlcNAc(b1-3)Gal(b1-4)GlcNAc(b1-2)Man(a1-3)[Gal(b1-4)GlcNAc(b1-3)Gal(b1-4)GlcNAc(b1-2)Man(a1-6)]Man(b1-4)GlcNAc(b1-4)GlcNAc
# In short: as §1
# [26] = biological target: Gal(b1-4)GlcNAc(b1-3)Gal(b1-4)GlcNAc(b1-2)Man(a1-3)[Gal(b1-4)GlcNAc(b1-3)Gal(b1-4)GlcNAc(b1-2)Man(a1-6)]Man(b1-4)GlcNAc(b1-4)[Fuc(a1-6)]GlcNAc
# In short: as §1
# [27] = biological target: Gal(b1-4)GlcNAc(b1-3)Gal(b1-4)GlcNAc(b1-2)[Gal(b1-4)GlcNAc(b1-3)Gal(b1-4)GlcNAc(b1-6)]Man(a1-6)[Gal(b1-4)GlcNAc(b1-3)Gal(b1-4)GlcNAc(b1-2)Man(a1-3)]Man(b1-4)GlcNAc(b1-4)GlcNAc
# In short: as §1
binder,measurement,setting,value
B1,glycan array binding signal (z-score),Gal(b1-4)Glc6S,0.425
same,glycan array binding signal (z-score),Gal(b1-4)GlcNAc,0.1
same,glycan array binding signal (z-score),[1],0.336
same,glycan array binding signal (z-score),Gal(b1-4)GlcNAc(b1-2)Man,-0.708
same,glycan array binding signal (z-score),[2],-1.13
same,glycan array binding signal (z-score),[3],0.454
same,glycan array binding signal (z-score),[4],-0.001
same,glycan array binding signal (z-score),[5],-0.706
same,glycan array binding signal (z-score),[6],-0.656
same,glycan array binding signal (z-score),[7],1.68
same,glycan array binding signal (z-score),[8],0.916
same,glycan array binding signal (z-score),[9],0.894
same,glycan array binding signal (z-score),[10],-1.22
same,glycan array binding signal (z-score),[11],0.881
same,glycan array binding signal (z-score),[12],0.734
same,glycan array binding signal (z-score),[13],2.79
same,glycan array binding signal (z-score),[14],-0.833
same,glycan array binding signal (z-score),[15],-0.166
same,glycan array binding signal (z-score),[16],-1.18
same,glycan array binding signal (z-score),[17],0.19
same,glycan array binding signal (z-score),[18],-0.447
same,glycan array binding signal (z-score),[19],-0.543
same,glycan array binding signal (z-score),[20],-1
same,glycan array binding signal (z-score),[21],0.592
same,glycan array binding signal (z-score),[22],-1.05
same,glycan array binding signal (z-score),[23],-0.934
same,glycan array binding signal (z-score),[24],-0.371
same,glycan array binding signal (z-score),[25],-0.644
same,glycan array binding signal (z-score),[26],0.137
same,glycan array binding signal (z-score),[27],0.232
